Assay results published in publication PMC4521722.
No constants are given. Whether binding was seen depends on the method and setting. Binding seen in cells or lysates may run through a third protein. Binding can be weak; no strength is given.

Biological target: T1, endogenous Arabidopsis thaliana DNA Pol λ (AtPolλ) (Arabidopsis thaliana (endogenous in Col-0 seedlings)) (UniProt Q9FNY4)
T1 sequence: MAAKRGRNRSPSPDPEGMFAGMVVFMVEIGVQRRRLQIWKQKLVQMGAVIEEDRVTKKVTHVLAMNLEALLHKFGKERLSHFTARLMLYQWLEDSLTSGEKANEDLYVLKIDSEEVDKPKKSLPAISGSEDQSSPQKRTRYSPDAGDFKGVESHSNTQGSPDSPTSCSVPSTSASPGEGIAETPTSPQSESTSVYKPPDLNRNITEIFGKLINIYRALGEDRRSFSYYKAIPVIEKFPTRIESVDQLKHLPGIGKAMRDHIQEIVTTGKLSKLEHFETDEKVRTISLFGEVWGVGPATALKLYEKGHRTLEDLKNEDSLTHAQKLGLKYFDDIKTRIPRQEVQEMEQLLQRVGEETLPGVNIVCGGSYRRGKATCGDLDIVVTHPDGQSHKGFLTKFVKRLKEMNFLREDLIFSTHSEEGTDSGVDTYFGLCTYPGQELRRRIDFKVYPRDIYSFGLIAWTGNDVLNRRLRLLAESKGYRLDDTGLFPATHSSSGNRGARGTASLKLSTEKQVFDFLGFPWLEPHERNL
Assay: co-IP; endogenous proteins; Arabidopsis seedlings cross-linked with 1% formaldehyde; extract immunoprecipitated with affinity purified anti-AtPolλ polyclonal antibody, probed with anti-HSP90 antibody (1:500); atpolλ-1 null line as negative control; vehicle (1% DMSO) sample of Fig 8C

Substance: endogenous Arabidopsis HSP90
- binding: binds
